From publication PMC12411348
These are yes or no findings as the source states them, for the method shown. Binding can be weak; no strength is given. For part of these data: In cells and extracts the contact can be indirect.

Protein sequences, listed by entry. Tags and fused reporters are not part of them. Lines headed by an entry give the natural chain unless they say otherwise; changes in a name come on top.
UniProt P40337: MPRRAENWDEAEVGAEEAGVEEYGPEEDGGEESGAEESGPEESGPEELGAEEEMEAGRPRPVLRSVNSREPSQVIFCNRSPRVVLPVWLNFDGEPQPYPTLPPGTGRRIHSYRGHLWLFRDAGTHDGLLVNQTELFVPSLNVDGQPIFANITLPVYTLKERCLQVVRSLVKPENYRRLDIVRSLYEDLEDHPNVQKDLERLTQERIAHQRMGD
UniProt Q9NQB0: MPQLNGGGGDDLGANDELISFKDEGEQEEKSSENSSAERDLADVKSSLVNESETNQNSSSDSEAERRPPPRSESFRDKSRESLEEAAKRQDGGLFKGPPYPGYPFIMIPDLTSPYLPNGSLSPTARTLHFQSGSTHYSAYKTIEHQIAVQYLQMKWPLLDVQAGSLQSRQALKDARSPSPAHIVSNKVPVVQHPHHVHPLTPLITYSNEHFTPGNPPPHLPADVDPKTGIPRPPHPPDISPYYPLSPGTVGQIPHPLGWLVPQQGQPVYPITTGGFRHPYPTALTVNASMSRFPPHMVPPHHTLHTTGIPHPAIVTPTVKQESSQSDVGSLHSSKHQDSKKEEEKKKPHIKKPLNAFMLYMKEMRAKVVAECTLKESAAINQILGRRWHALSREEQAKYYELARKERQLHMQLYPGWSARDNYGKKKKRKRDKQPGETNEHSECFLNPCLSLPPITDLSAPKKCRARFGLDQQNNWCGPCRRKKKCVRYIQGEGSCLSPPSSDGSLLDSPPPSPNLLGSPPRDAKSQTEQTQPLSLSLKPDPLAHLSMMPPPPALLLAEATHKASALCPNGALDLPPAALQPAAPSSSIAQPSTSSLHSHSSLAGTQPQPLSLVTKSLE

Columns and labels:
[1] = target: pVHL expressed in transfected HEK293T cells for domain mapping (human) (UniProt P40337); assay: co-IP; transfected HEK293T cells; IP lysis buffer (50 mM Tris–HCl pH 7.5, 150 mM NaCl, 1 mM EDTA, 10% glycerol, 1% Triton X-100), antibody overnight at 4 °C, Protein A/G agarose beads, immunoblot
[2] = target: endogenous TCF7L2 (human (endogenous in HEK293T)) (UniProt Q9NQB0); assay: co-IP; endogenous proteins in HEK293T cells; IP lysis buffer (50 mM Tris–HCl pH 7.5, 150 mM NaCl, 1 mM EDTA, 10% glycerol, 1% Triton X-100), antibody overnight at 4 °C, Protein A/G agarose beads, immunoblot
[3] = target: recombinant human pVHL (CUSABIO) (human) (UniProt P40337); assay: SPR; BIAcore T200, pVHL immobilised on a CM5 chip by amine coupling (pH 4.5 sodium acetate), TCF7L2(1–456) as analyte at 0.36–1.82 μM in PBS, 10 μL/min, steady-state affinity analysis; both purified

Substance: TCF7L2 (328–415) (from UniProt Q9NQB0-7) (domain or fragment)
- binding [1]: binds

Substance: endogenous von Hippel-Lindau protein (pVHL) (from UniProt P40337-1 1-213)
- binding [2]: binds

Substance: recombinant TCF7L2(1–456) (from UniProt Q9NQB0) (domain or fragment)
- binding [3]: binds
